{
  "sequences": {"note": "By UniProt entry, the sequences of proteins in these tests, tags left out. Residues count along the entry.", "UniProt Q9Y2M0, residues 360-1017": "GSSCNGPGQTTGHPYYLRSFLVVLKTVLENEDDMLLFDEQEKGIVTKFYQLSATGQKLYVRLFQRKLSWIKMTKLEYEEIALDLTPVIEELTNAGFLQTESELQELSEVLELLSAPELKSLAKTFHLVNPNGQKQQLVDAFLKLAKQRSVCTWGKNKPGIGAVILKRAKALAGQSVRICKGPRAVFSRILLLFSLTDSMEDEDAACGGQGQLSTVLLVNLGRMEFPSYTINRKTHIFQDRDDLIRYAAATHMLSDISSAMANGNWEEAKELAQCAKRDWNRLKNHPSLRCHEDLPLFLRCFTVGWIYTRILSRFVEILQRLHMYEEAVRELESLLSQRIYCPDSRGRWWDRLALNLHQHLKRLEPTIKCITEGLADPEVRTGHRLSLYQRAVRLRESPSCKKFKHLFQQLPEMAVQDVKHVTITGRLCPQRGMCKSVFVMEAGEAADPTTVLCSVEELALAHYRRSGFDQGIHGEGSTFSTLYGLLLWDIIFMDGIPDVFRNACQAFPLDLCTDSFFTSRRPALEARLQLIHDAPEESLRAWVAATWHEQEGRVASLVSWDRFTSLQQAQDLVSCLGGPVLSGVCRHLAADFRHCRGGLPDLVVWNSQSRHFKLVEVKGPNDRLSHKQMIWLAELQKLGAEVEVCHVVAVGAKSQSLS"},
  "source": "paper PMC4103454",
  "about": "“FAN1 Activity on Asymmetric Repair Intermediates Is Mediated by an Atypical Monomeric Virus-type Replication-Repair Nuclease Domain” (Cell Reports, 2014)",
  "key": {"[1]": {"biological_target": "hFAN1_360 (human FAN1 without its first 359 residues) (human) (UniProt Q9Y2M0)", "experiment": "SEC; analytical gel filtration, S200, retention times against molecular weight standards; both purified"}, "[2]": {"biological_target": "psNUC, VRR-Nuc single-domain protein of Psychrobacter (Psychrobacter) (UniProt A5WF35)", "experiment": "crystal structure; sitting drop vapor diffusion, Morpheus screen; data collected at 100 K; homodimers seen in the crystals; both purified"}, "[3]": {"biological_target": "Pseudomonas aeruginosa FAN1 (Pseudomonas aeruginosa) (UniProt Q9I2N0)", "experiment": "SEC; analytical gel filtration, S200, retention times against molecular weight standards; both purified"}, "[4]": {"biological_target": "Pseudomonas aeruginosa FAN1 (Pseudomonas aeruginosa) (UniProt Q9I2N0)", "experiment": "AUC; sedimentation velocity, 50,000 rpm, 277 K, 50 mM Tris/HCl pH 8.0, 300 mM NaCl, 0.50 mM TCEP, interference optics, SEDFIT c(s) and c(M); both purified"}},
  "note": "These are yes or no findings as the source states them, for the method shown. Some results given as binding are weak or reduced against the parent protein; the word gives no strength.",
  "data": [
    {"molecule": "hFAN1_360 (human FAN1 without its first 359 residues) (from UniProt Q9Y2M0 360-1017) (domain or fragment)", "values": [
      {"measurement": "binding", "setting": "[1]", "value": "no binding"}
    ]},
    {"molecule": "psNUC, VRR-Nuc single-domain protein of Psychrobacter (enzyme, psNUC, standalone VRR-Nuc domain protein of Psychrobacter, UniProt A5WF35; Synthetic gene (GeneART) in pGEX 6P-1; The structure was solved by SAD on a selenomethionine derivative; source: E. coli, purified (glutathione-Sepharose, 3C protease cleavage, Superdex gel filtration)) RLKGLTEDEVQTVVMNWSKRQKFKGRPLFDYIHHSPNGGKRAAKIGSSGKRYSPEAAKFKRMGVKAGYPDLIIDIARGAYHGLRIEIKKDGNSYATPAQKERIEMLAKEGYCAVVAKGIDNVISVIQQYIKLGDFDGVSQLTADK", "values": [
      {"measurement": "binding", "setting": "[2]", "value": "binds"}
    ]},
    {"molecule": "Pseudomonas aeruginosa FAN1 (enzyme, UniProt Q9I2N0 1-559) MHEQYQAPLPVNSPALPEPFYYLHNFRAVLAWIGERYADLLDDQERAFIAAFAELPEASQALLVRMVMRKGTLFREGKLAYAEIGDTRAAVQPLLALGWVDAQPTLELAQLFGLLKKDELSQLFRDHLGRANLRKDALLERLQPLFPEARRLAEWQADFAEPVYELRCMALCDRLRLMYFGNLWQDWSEFVLADLGIYRYESVEFSADSRGFRLRADVDAYLHLFDCRQRFDLGEPLEELLAGLPGEPYANPWLEGRRVKLLFQFAQHCEKQRDFDLAQRLYRQSSHPGARLRAIRSLERGERFAEAHALAREASCAPESDAERQGLARLLPRLQGKLGLPRQARAAAPEIDRLDLCLAFPSEPCSVEWAVREHLEEPGCAVHYVENGLINSLFGLLCWEAIFAAIPGAFFHPFHSAPADLHSADFRQRRAALFEACLGRLEDGSYRDAIRCRYRDKFGLQSPFVYWELLGEELLEQALDCLPAAHLRAWFERLLEDIPGNRAGLPDLIQFWPAQRRYRMVEVKGPGDRLQDNQLRWLQFCREREMPVAVCYVRWHVDD", "values": [
      {"measurement": "binding", "setting": "[3]", "value": "no binding"},
      {"measurement": "binding", "setting": "[4]", "value": "no binding"}
    ]}
  ]
}
